In all, about 400,000 compounds went through this assay and about 13,000 (3.2%) were called active. The shares of active, inactive and inconclusive entries below differ from those in the screen. Calls follow the shape of the dose curve; as a rule, active = well fitted cell-killing curve with a large enough effect; inconclusive = small, poorly fitted or top-dose-only effect, or effect the other way; inactive = flat fitted curve, though single readings scatter. Potencies beside an inconclusive call are fits to weak or partial responses and may not hold up.
assay: qHTS assay for MDR1-selective chemotherapeutics: Primary screen using the drug-selected MDR subline cells KB-V1; conditions: KB-V1 MDR cells viability, CellTiter-Glo, 72 h; activity change, negative = cytotoxicity: at 46.1 µM (top of the series); also: nearly all actives have a fitted effect of over 60% in size
Summary of the method: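 Cytotoxicity via CellTiter-Glo luminescence after 72 h compound exposure at 37 degrees C. Cells: drug-selected KB-V1 line, DMEM phenol-red free plus 10% FBS. Compounds tested at multiple concentrations; normalized data fitted to concentration-effect curves.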
% is scaled to controls: 0 for no effect and ±100 for the full control effect; potency is read from the fitted curve at half-maximal effect.

| SMILES | Potency | activity change, negative = cytotoxicity |
| --- | --- | --- |
| Cc1cc(C)cc(NC(=S)N2CCC(NC(=O)C3CCCCC3)CC2)c1 | inconclusive: 18.4 µM [cytotoxic, partial curve, poor fit] | – |
| O=C(COC(=O)CCC(=O)c1ccc(Cl)cc1)NCCc1ccccc1 | inconclusive: 29.1 µM [rising, single point] | – |
| CCCCCn1cnnc1SCC(=O)c1ccc2c(c1)OCO2 | inconclusive: 0.231 µM [cytotoxic, full curve, poor fit] | – |
| COc1ccc(/C=C/CN2CCCC(C(=O)c3ccc(OC)c(F)c3)C2)cc1 (stereo not drawn) | inconclusive: 9.2 µM [cytotoxic, partial curve] | – |
| CCOC(=O)c1nnc2c(-c3ccc(OC)cc3)c(C)nn2c1N | inconclusive: 29.1 µM [rising, partial curve, poor fit] | – |
| COc1ccccc1NC(=O)n1ncc2c(C)cccc21 | inconclusive: 16.4 µM [rising, single point] | – |
| CCOC(=O)N1CCC(n2c(SCC(=O)N3CCCC3)nc3ccccc3c2=O)CC1 | inactive | – |
| CC1(c2ccc(Cl)cc2)NC(=S)N2C1NC(=S)N2c1ccccc1 (stereo not drawn) | inconclusive: 5.8 µM [cytotoxic, full curve, poor fit] | – |
| O=C(CCCCCN1C(=O)[C@@H]2Cc3ccccc3CN2C1=O)Nc1cccc(F)c1 | inconclusive: 3.66 µM [cytotoxic, full curve] | – |
| COc1ccc(Cl)cc1NS(=O)(=O)c1cc(-c2cc(C)no2)ccc1C | active: 3.66 µM | – |
| Cc1cc(Br)ccc1NC(=O)CCS(=O)(=O)c1cccc2nonc12 | – | inconclusive: -16% |
| COc1ccc(NC(=O)C(NC(=O)OC(C)(C)C)C(C)OCc2ccccc2)cc1 (stereo not drawn) | active: 4.11 µM | – |
| CCOc1ccc(NC(=O)CCC(=O)N/N=C(\C)c2cccs2)cc1 | inconclusive: 0.0046 µM [rising, full curve, poor fit] | – |
| Cc1ccc(-c2csc3ncnc(Sc4nnnn4-c4ccccc4)c23)cc1 | inconclusive: 20.6 µM [cytotoxic, single point] | – |
| COc1ccc(C2c3[nH]c4ccccc4c3C[C@H]3C(=O)N(C4CCN(Cc5ccccc5)CC4)CC(=O)N23)c(OC)c1 (stereo partly drawn) | inactive | – |
| CCN(CC(=O)N1CCN(Cc2ccccc2)CC1)S(=O)(=O)c1ccc(C)cc1 | inconclusive: 8.2 µM [cytotoxic, partial curve] | – |
| COc1cccc(/C=N/NC(=S)Nc2cccc(S(=O)(=O)N(C)C)c2)c1 | inactive | – |
| Cn1cc([N+](=O)[O-])c(C(=O)Nc2ccc(-c3nc4ccccc4o3)cc2)n1 | active: 11.6 µM | – |
| COc1cc(/C=C(\C#N)C(=O)c2c(C)[nH]c3ccccc23)cc(OC)c1OC | inactive | – |
| O=C1c2ccccc2C(=O)N1Cc1nc2ccccc2o1 | inconclusive: 5.17 µM [rising, partial curve, poor fit] | – |
| Nc1cc(=O)[nH]c(SCC(=O)Nc2ccccc2Sc2ccc(Cl)cc2)n1 | inconclusive: 18.4 µM [cytotoxic, single point] | – |
| CCCCN(C(=O)c1cc(S(=O)(=O)N2CCOCC2)ccc1F)c1c(N)n(CCCC)c(=O)[nH]c1=O | inconclusive: 18.4 µM [cytotoxic, single point] | – |

| SMILES | Potency | activity change, negative = cytotoxicity |
| --- | --- | --- |
| Cc1ccc(C)c(N2CCN(C(=O)CN3C(=O)COc4ccc(S(=O)(=O)N5CCCCCC5)cc43)CC2)c1 | inactive | – |
| CCCNC(=O)C1(C)CCCN(Cc2cc(-c3ccccc3)n(C)n2)C1 (stereo not drawn) | inactive | – |
| CCCCOCCCNC(=O)C[C@@H]1C[C@@]2(C(=O)OCC)CCCC=C2N(Cc2cccc3ccccc23)C1=O | active: 18.4 µM | – |
| Cc1cc(C)c(Cn2c(C)c(CNCCCc3ccccc3)c(C(=O)O)c2C)c(C)c1 | inconclusive: 29.1 µM [rising, single point] | – |
| CC(=O)c1sc2c(c1C)c(=O)n(-c1ccc(Cl)cc1)c(=O)n2Cc1ccc(Cl)cc1 | inconclusive: 16.4 µM [cytotoxic, single point] | – |
| Cc1ccc(N(C)S(=O)(=O)c2cccc(C(=O)OCC(=O)c3c(N)n(C)c(=O)n(C)c3=O)c2)cc1 | inconclusive: 18.4 µM [cytotoxic, single point] | – |
| COc1ccc(-c2nnc(-c3cccs3)o2)cc1OC | active: 6.51 µM | – |
| COc1cc2nc(CN(C)Cc3ccc(SC)cc3)[nH]c(=O)c2cc1OC | inconclusive: 8.2 µM [cytotoxic, partial curve] | – |
| CC(=O)N1CCC(N(Cc2ccco2)C(=O)Nc2cccc(C)c2)CC1 | inconclusive: 0.517 µM [rising, full curve] | – |
| CC1(C)O[C@@H](CC(=O)O)[C@]23CO[C@H](C(=O)[C@]4(C)C2CC[C@@]2(C)[C@H](c5ccoc5)OC(=O)C5O[C@]524)[C@@H]13 (stereo partly drawn) | inactive | – |
| O=C(CCNc1cccc(Cl)c1)c1cccs1 | inactive | – |
| O=C(NC1CCCCCC1)c1cc(S(=O)(=O)N2CCCCC2)ccc1N1CCOCC1 | inactive | – |
| COc1ccccc1N1N=C(c2cccs2)CC1c1ccccc1 (stereo not drawn) | inconclusive: 8.2 µM [cytotoxic, partial curve] | – |
| COc1ccc(-c2noc(CN(Cc3nccn3C)C(C)C)n2)cc1 | inconclusive: 6.51 µM [cytotoxic, partial curve, poor fit] | – |
| COc1ccc(OC)c(CCNC(=O)CCc2nnc3ccc(N4CCOCC4)nn23)c1 | inconclusive: 18.4 µM [rising, single point] | – |
| CCCn1c(=O)c(C(=O)Nc2ncccc2O)c(O)c2ccccc21 | inconclusive: 18.4 µM [cytotoxic, partial curve] | – |
| CC1(C(=O)Nc2cccc(OC(F)(F)F)c2)Cc2c(-c3cccc(C(F)(F)F)c3)ccnc2O1 (stereo not drawn) | inactive | – |
| O=c1c2ccccc2nc(COc2ccccc2)n1/N=C/c1cc([N+](=O)[O-])ccc1O | active: 7.31 µM | – |
| CC(=O)NC(c1ccccc1)c1nc(-c2cccc(CO)c2)cs1 (stereo not drawn) | inactive | – |
| Cc1cc(C=O)c(C)n1-c1ccc(N2CCCC2)c([N+](=O)[O-])c1 | inconclusive: 20.6 µM [cytotoxic, partial curve] | – |
| CN(Cc1ccccc1)C(=O)CCSc1nc(-c2ccc3c(c2)OCO3)cc(C(F)(F)F)n1 | active: 2.59 µM | – |

Single records, as listed above. Order of values: Potency | activity change, negative = cytotoxicity
O=C(NC1CCCCCC1)c1cc(S(=O)(=O)N2CCCCC2)ccc1N1CCOCC1 in the list: inactive | –
COc1ccc(-c2nnc(-c3cccs3)o2)cc1OC in the list: active: 6.51 µM | –
O=C(CCNc1cccc(Cl)c1)c1cccs1 in the list: inactive | –
CC(=O)c1sc2c(c1C)c(=O)n(-c1ccc(Cl)cc1)c(=O)n2Cc1ccc(Cl)cc1 in the list: inconclusive: 16.4 µM [cytotoxic, single point] | –
